Source: doi:10.1101/2025.10.13.682238

Amino acid sequences for entries named in this document (tags omitted).
UniProt P0A6F5: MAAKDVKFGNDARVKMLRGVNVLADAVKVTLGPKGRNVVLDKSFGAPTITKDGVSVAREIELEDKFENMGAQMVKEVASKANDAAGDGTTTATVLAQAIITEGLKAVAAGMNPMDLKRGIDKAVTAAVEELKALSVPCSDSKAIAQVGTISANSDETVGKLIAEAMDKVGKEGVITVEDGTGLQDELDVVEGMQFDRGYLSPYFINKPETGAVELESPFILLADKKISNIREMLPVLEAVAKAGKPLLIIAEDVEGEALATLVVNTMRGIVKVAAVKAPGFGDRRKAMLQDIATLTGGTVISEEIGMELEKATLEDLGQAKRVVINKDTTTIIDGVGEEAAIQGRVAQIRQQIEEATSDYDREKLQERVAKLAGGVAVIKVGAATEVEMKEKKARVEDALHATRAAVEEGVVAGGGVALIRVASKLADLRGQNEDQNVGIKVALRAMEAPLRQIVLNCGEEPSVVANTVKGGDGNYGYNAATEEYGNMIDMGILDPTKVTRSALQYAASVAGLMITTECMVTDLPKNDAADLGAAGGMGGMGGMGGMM

Molecular target: T1, GST-∆N-ATAD2B, res 380–1458 (human ATPase family AAA+ domain-containing protein 2B), expressed in E. coli (human) (UniProt Q9ULI0)
T1 sequence: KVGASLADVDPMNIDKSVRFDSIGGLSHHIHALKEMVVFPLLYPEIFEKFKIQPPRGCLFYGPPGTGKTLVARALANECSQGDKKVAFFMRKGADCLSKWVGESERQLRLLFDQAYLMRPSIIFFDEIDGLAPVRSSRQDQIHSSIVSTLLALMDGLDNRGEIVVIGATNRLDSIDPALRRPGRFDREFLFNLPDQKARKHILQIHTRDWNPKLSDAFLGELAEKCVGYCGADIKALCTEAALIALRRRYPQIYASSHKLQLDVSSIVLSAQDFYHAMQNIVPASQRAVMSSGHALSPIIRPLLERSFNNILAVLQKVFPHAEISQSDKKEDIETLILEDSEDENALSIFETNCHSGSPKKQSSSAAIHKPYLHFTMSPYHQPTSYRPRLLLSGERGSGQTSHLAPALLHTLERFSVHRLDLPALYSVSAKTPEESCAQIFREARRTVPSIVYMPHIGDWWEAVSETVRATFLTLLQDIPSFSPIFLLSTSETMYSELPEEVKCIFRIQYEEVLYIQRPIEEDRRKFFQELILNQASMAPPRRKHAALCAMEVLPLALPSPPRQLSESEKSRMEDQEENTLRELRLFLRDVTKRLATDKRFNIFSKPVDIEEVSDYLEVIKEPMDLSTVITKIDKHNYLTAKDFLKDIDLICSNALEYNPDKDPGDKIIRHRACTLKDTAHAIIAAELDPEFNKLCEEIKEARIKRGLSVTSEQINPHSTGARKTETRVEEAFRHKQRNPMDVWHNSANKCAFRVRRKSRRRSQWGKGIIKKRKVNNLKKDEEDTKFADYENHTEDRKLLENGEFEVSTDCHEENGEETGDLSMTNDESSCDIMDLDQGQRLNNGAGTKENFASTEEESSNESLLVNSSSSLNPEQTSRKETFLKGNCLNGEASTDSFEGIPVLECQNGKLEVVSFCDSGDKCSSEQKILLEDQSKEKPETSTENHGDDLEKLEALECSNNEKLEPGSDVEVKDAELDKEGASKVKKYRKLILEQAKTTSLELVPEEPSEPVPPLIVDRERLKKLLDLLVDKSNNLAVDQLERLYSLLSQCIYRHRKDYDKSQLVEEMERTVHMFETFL
Test: affinity purification with mass spectrometry; GST-∆N-ATAD2B purified from E. coli by GST affinity and size exclusion chromatography; 58 kDa band on SDS-PAGE and liquid sample identified by mass spectrometry once E. coli proteins were included in the search; GroEL stayed after unfolded bacterial lysate with ATP was added

- binding: binds
Substance: GroEL (E. coli chaperonin) (from UniProt P0A6F5 1-548)

No constants are given. Whether binding was seen depends on the method and setting. In cells and extracts the contact can be indirect. These calls come from enrichment with a bait or labelling near it, and not all partners need be listed. Tags and fused reporters may be left off the sequences shown.
